Measurements reported in PubChem BioAssay AID1053208 (Peter MacCallum Cancer Centre, 2014).
Aim: 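Genes whose silencing cuts survival of bone tumour cells only with doxorubicin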 (primary screen). Cells: mouse osteosarcoma cells, early-passage culture from an engineered mouse model of fibroblastic bone tumour. Reagents: siRNA pool against mouse genes, 40 nM. Time to read-out: about 120 h (48 h before drug, then 72 h with drug). Conditions: doxorubicin 100 nM for 72 h, roughly 30-40% inhibitory dose. Read-out: 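Viability read as ATP luminescence after 72 h of 100 nM doxorubicin or none, duplicate wells averaged, scaled to non-targeting siRNA, then expressed as robust z-scores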. Scale: viability z-score with doxorubicin: higher = more viable cells under doxorubicin; viability z-score without drug: higher = more viable cells with knock-down alone. Call rule: 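Called active if knock-down leaves viability unchanged without drug (z within -2 to 2) but lowers it with doxorubicin (z at or under -2)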.
In all, the deposit lists about 17,000 reagents; this is a part drawn at random. Over the whole deposit, 788 (4.7%) are marked active. 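Calls rest on z-score classes alone; an extra cut-off of viability at most 70% of control was not applied to them.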 A number with no mark means an inactive call. Not all columns of the deposit are shown. No sequences are given here.

gene knocked down | combined z-score class | viability z-score with doxorubicin | viability z-score without drug
Ms4a7 (membrane-spanning 4-domains, subfamily A, member 7) | no change with or without drug | -0.45 | -0.84
Cfap298 (cilia and flagella associate protien 298) | no change with or without drug | -1.57 | -0.17
Hdac7 (histone deacetylase 7) | no change with or without drug | -1.91 | 1.85
Aoc3 (amine oxidase, copper containing 3) | no change with or without drug | -0.9 | 0
Cox7b (cytochrome c oxidase subunit 7B) | no change with or without drug | -0.45 | 1.01
Ptprs (protein tyrosine phosphatase receptor type S) | no change with or without drug | -0.45 | -1.52
Katnal2 (katanin p60 subunit A-like 2) | no change with or without drug | 0.45 | 1.52
Cyp4f15 (cytochrome P450, family 4, subfamily f, polypeptide 15) | no change with or without drug | -0.22 | -0.51
Myl1 (myosin, light polypeptide 1) | no change with or without drug | 0.67 | -1.52
Or4d1 (olfactory receptor family 4 subfamily D member 1) | no change with or without drug | -1.01 | -0.17
Defa5 (defensin, alpha, 5) | no change with or without drug | 0.11 | 0.34
Trmt9b (tRNA methyltransferase 9B) | no change with or without drug | 0.9 | 1.85
Dmap1 (DNA methyltransferase 1-associated protein 1) | no change with or without drug | -0.45 | 0.17
Matr3 (matrin 3) | no change with or without drug | -0.67 | -1.18
Slc25a23 | no change with or without drug | -1.46 | 1.18
Cpa5 (carboxypeptidase A5) | no change with or without drug | -0.9 | -0.67
Cox19 (cytochrome c oxidase assembly protein 19) | low cell count with doxorubicin only (active) | -2.14 | -1.85
Ifngr2 (interferon gamma receptor 2) | no change with or without drug | -0.22 | -0.34
Or7a35 (olfactory receptor family 7 subfamily A member 35) | no change with or without drug | -0.45 | -0.17
Tex9 (testis expressed gene 9) | no change with or without drug | 1.24 | 1.85

Just “viability z-score without drug” (2 entries from above):
Defa5 (defensin, alpha, 5): 0.34
Trmt9b (tRNA methyltransferase 9B): 1.85
